The source of these data is paper PMC5472784, “Pyrazinamide and derivatives block ethylene biosynthesis by inhibiting ACC oxidase” (Nature Communications, 2017).

The chains behind the UniProt entries cited, without tags or fusion partners. Residues count along the entry.
UniProt Q41931, residues 1-303: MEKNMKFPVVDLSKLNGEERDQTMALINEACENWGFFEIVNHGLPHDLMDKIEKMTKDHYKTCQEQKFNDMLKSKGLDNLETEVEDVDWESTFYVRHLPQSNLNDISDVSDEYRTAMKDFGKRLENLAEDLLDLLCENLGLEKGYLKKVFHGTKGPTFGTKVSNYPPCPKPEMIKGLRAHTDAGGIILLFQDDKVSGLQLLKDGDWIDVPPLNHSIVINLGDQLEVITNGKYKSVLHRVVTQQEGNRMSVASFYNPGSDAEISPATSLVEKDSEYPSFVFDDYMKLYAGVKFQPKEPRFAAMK

For the assay, the target named is Arabidopsis ACC oxidase 2 (AtACO2^1-303) (Arabidopsis thaliana) (UniProt Q41931). Kind of assay: SEC; gel filtration analyses of AtACO2 in solution (Supplementary Fig. 14); both purified. (Size exclusion chromatography separates by hydrodynamic size, large species first.)

These are yes or no findings as the source states them, for the method shown.

Take “Arabidopsis ACC oxidase 2 (AtACO2^1-303) (from UniProt Q41931 1-303) (enzyme)”: the binding entry is on record as “no binding”.
